The test system of the assay is HT29 xenograft, nude mice, s.c., tumor weight T/C%. The assay can be described thus: NCI In Vivo Anticancer Drug Screen. Data for tumor model HT29;CX-1 Human Adenocarcinoma (MER+) (subcutaneous) in NU/NU Swiss (nude) mice. The conditions noted are these: T/C endpoint: optimum tumor weight change, schedule: Q04DX003 (ip), higher T/C = larger tumour. The protocol:
The antitumor activity of compounds was measured in mice bearing transplantable tumors. Survival or tumor size were measured and the results are expressed as the measurement made in the treated group (T) divided by the measurement made in the vehicle treated control group (C). The tumor model used in this assay is HT29;CX-1 Human Adenocarcinoma (MER+) (subcutaneous) in NU/NU Swiss (nude) mice

Molecules are shown by their SMILES. The list is a part of this screen's results and no random one: it gathers some chemical classes. Other doses and runs of a compound may be missing. T/C gives the treated animals as a percentage of the vehicle group. Schedules are NCI's codes, taken here to give the interval after Q, in days (D) or hours (H), and the number of doses after X. Some T/C values carry the count of animals alive at the toxicity check; where neither a count nor a note follows, no animal had died by that day. Some entries give survivors of the animals treated and no T/C: the source files T/C as zero there, which appears to mark a toxic dose or a test without result, not a measured value. Counts of survivors are from the toxicity check, whose day is not always given; animals may have died later.

Take `CC1=CC(=O)C(N(CCCl)CCCl)=CC1=O`: the T/C is 102 % of control (dose: 0.37 mg/kg/injection, vehicle: Klucel (hydroxypropylcellulose) (HPC), evaluated on day 34); 91 % of control (dose: 0.75 mg/kg/injection, vehicle: Klucel (hydroxypropylcellulose) (HPC), evaluated on day 34); 57 % of control (dose: 1.5 mg/kg/injection, vehicle: Klucel (hydroxypropylcellulose) (HPC), evaluated on day 34); 102 % of control (dose: 3.0 mg/kg/injection, vehicle: Klucel (hydroxypropylcellulose) (HPC), evaluated on day 34).
With `C[N+](CCCl)(CCCl)Cc1ccc([N+](=O)[O-])cc1`, where the note is “dose: 25.0 mg/kg/injection, vehicle: saline, evaluated on day 35”, the T/C was 106 % of control.
As to `ClCCN(CCCl)c1ccccc1`, the T/C (dose: 25.0 mg/kg/injection, vehicle: saline with Tween-80, evaluated on day 32) is 95 % of control; the T/C (dose: 50.0 mg/kg/injection, vehicle: saline with Tween-80, evaluated on day 32) is 67 % of control; the T/C (dose: 100.0 mg/kg/injection, vehicle: saline with Tween-80, evaluated on day 32) is 65 % of control [4 of 5 alive on day 34]. Moreover, the survivor count (dose: 200.0 mg/kg/injection, vehicle: saline with Tween-80) was 0 of 5 on day 34.
